Data as given in PubChem BioAssay AID504786 (Drosophila RNAi Screening Center, 2011)

Assay: 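Fly genes required for HIF-dependent transcription when hypoxia is mimicked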 (primary screen)
Cell system: Drosophila S2 cells with a stable HIF luciferase reporter
Knock-down reagent: long dsRNA against Drosophila genes, about 0.2 µg dsRNA per well of a 384-well plate
Duration: three days of knock-down, then 20 h of DFO before reading
Challenge: desferrioxamine (DFO) at 100 µM, an iron chelator that mimics hypoxia, for 20 h
Measurement: 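Firefly luciferase driven by the mouse ldh-a hypoxia-response element, measured after 20 h of 100 µM DFO; z-scores per plate, higher means more signal lost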
Direction: z-score: higher = stronger loss of HIF reporter signal
The deposit covers about 21,000 reagents; below is an unselected part of those that have a named target and a result. 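Primary screen; positive scores mean lost reporter signal, so the sign may be inverted from the usual convention.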 Reagent sequences are not shown.

no.	target	dsRNA	z-score, replicate 1	z-score, replicate 2	z-score, replicate 3	z-score, replicate 4
1	Cyp6a22	DRSC07382	-0.2	0.1		
2	Pax	DRSC01703	-0.4	-0.4		
3	Pax	DRSC02651	-0.3	-0.1		
4	Pax	DRSC02652	-0.3	-0.4		
5	alien	DRSC03482	2.4	2.1		
6	Cht7	DRSC08538	-0.1	0		
7	CG6337	DRSC06977	-0.4	-0.7		
8	CG8534	DRSC16439	-0.3	-0.5		
9	Ir75c	DRSC10190	-0.2	-1.6		
10	CG13884	DRSC08354	-0.3	0.7		
11	RpL35A	DRSC12302	7.4	7.1		
12	l(2)09851	DRSC04858	-0.1	-0.4		
13	CG13251	DRSC11699	-0.2	-0.1		
14	SdhD	DRSC14215	-0.1	-0.6		
15	Sgs8	DRSC11282	-0.2	-0.1		
16	CG33506	DRSC05981	0.1	0.1		
17	CG8490	DRSC07194	-0.1	-0.3		
18	CG13700	DRSC10049	-0.2	-0.3		
19	GstT1	DRSC06243	-0.4	-0.6		
20	Ppt2	DRSC02786	-0.3	-0.2		
21	GstD7	DRSC16688	-0.1	-0.3		
22	Polr2M	DRSC15513	0.2	-0.3		
23	Src64B	DRSC08700	-0.2	0		
24	Nup54	DRSC07282	0.3	-0.3		
25	EndoGI	DRSC01964	-0.2	0.1		
26	step	DRSC03694	-0.1	0		
27	step	DRSC03699	-0.2	0		
28	CG42671	DRSC09093	1.1	0.6		
29	CG42671	DRSC10321	-0.3	-0.3		
30	CG4066	DRSC15541	-0.4	-0.3		
31	Obp99b	DRSC16264	0.1	0		
32	Usp5	DRSC08244	-0.3	-0.4		
33	5-HT2A	DRSC11990	-0.2	0.2		
34	l(3)psg2	DRSC10484	0.4	0.6		
35	CG5254	DRSC18611	-0.3	0		
36	CG13727	DRSC10055	-0.1	-0.2		
37	CG5023	DRSC15697	0.7	0		
38	Nf-YA	DRSC10385	1.6	0.2		
39	D19B	DRSC11134	0.3	-0.1		
40	per	DRSC18818	-0.3	-0.4		
41	CG10866	DRSC08171	-0.3	-0.4		

4 successive records already listed:
no.	target	dsRNA	z-score, replicate 1	z-score, replicate 2	z-score, replicate 3	z-score, replicate 4
31	Obp99b	DRSC16264	0.1	0		
32	Usp5	DRSC08244	-0.3	-0.4		
33	5-HT2A	DRSC11990	-0.2	0.2		
34	l(3)psg2	DRSC10484	0.4	0.6		

The listing continues:
no.	target	dsRNA	z-score, replicate 1	z-score, replicate 2	z-score, replicate 3	z-score, replicate 4
42	Nup58	DRSC16235	1	0.8		
43	NP15.6	DRSC16756	0	0.1		
44	S	DRSC00785	0.7	1.3		
45	mTor	DRSC02811	2.8	2		
46	CG34171	DRSC01637	0	0.6		
47	RpL22	DRSC18707	-0.3	-0.6	5.4	8
48	CG5863	DRSC15898	-0.2	0.2		
49	CG31223	DRSC15115	-0.1	0.7		
50	fok	DRSC02103	-0.4	-0.1		
51	Gp210	DRSC04861	-0.3	-0.3		
52	Gp210	DRSC04900	-0.3	-0.4		
53	CG5397	DRSC00683	-0.2	-0.7		
54	CG5770	DRSC06954	-0.1	-0.2		
55	goe	DRSC19345	-0.4	-1		
56	beat-Vc	DRSC12927	0.1	0		
57	beat-Vc	DRSC14849	-0.2	0		
58	tim	DRSC00841	-0.3	-0.3		
59	CG6813	DRSC16122	-0.3	-0.2		
60	ms(2)34Fe	DRSC01905	0.2	-0.1		
61	PIG-Q	DRSC19138	-0.3	-0.1		
62	SREBP	DRSC11182	3.5	2.3		
63	Prx6c	DRSC06080	-0.1	-0.1		
64	Iris	DRSC00663	-0.3	-0.4		
65	CG9269	DRSC16465	-0.4	-0.4		
66	CG9875	DRSC04585	-0.3	-0.5		
67	CG11906	DRSC06096	-0.2	0.8		
68	CG14424	DRSC18472	-0.3	-0.8		
69	CG9853	DRSC12343	-0.3	-0.7	-0.6	-0.2
70	melt	DRSC11367	-0.2	-0.1		
71	tub	DRSC12389	-0.3	-0.5	-0.3	-0.3
72	CG6225	DRSC15996	-0.2	-0.6		
73	CG15021	DRSC08475	-0.2	-0.3		
74	robl37BC	DRSC02472	-0.2	-0.3		
75	CCHa2-R	DRSC04825	0.4	0		
76	CCHa2-R	DRSC04870	0	-0.2		
77	CCHa2-R	DRSC04871	0.2	-0.7		
78	Rtnl1	DRSC00851	-0.4	-0.3		
79	Rtnl1	DRSC02684	-0.3	-0.2		
80	Rtnl1	DRSC03122	-0.4	-0.4		
81	pim	DRSC03591	0.1	0.2		
82	CG34327	DRSC19517	0	0.4		
83	CG2247	DRSC19844	-0.2	-0.7		
